Laboratory results: US20140009887A1, “FLUORINATED OXIRANES AS HEAT TRANSFER FLUIDS” (3M INNOVATIVE PROPERTIES COMPANY, priority 2011, published 2014)
Some results were stated once for a whole list of compounds, not compound by compound.

Assay: Thermal stability: fluoride ion after heating in monel pressure vessel
Format: physicochemical
Conditions: 10 g in monel pressure vessel, 200° C. for 16 hours

FC(F)(F)C1(F)OC1(F)C(F)(C(F)(F)F)C(F)(F)F (stereo not shown) [Example 1, 2,3-difluoro-2-(1,2,2,2-tetrafluoro-1-trifluoromethyl-ethyl)-3-trifluoromethyl-oxirane]
Fluoride ion concentration after thermal aging: less than 0.2 ppmw
